Some of the results follow. Further columns of the screen follow, without active or inactive calls. Most of these compounds were active or inconclusive in the main read-out, so they are no random draw. Potencies come from curve fits of mixed quality, noted in brackets.
Test: qHTS Assay for Modulators of Lamin A Splicing
Settings: HeLa LMNA splicing GFP/RFP minigene ratio, 48 h
Method in brief: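 Read-out is the ratio of GFP to DsRed2 object intensity, acquired by 488 nm laser-scanning cytometry on HeLa lamin A-EGFP minigene reporter cells. Compound incubation 48 hrs at 37 °C in Opti-MEM with 2% FBS; DMSO 0.5% final.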

[1] = measured here: RFP viability control channel
[2] = measured here: GFP splicing reporter channel

## Cc1occc1-c1nnc(SCCCC(=O)c2ccc(F)cc2)n1C
[1]
  AC50: 15.8 µM [rising, single point]

## Cn1cc(/C=N/n2cnc3scc(-c4ccc(Cl)cc4)c3c2=O)c2ccccc21
[2]
  AC50: 4.47 µM [rising, partial curve]
[1]
  AC50: 1.58 µM [rising, full curve]

## CC(CN1CCCCC1)OC(=O)c1cc2ccccc2o1 (stereo not drawn)
[2]
  AC50: 2 µM [falling, full curve, poor fit]
[1]
  AC50: 1.26 µM [falling, full curve, poor fit]

## COc1cccc(-c2ccc3ncnc(NCc4ccccc4)c3c2)c1
[2]
  AC50: 17.8 µM [falling, partial curve]
[1]
  AC50: 15.8 µM [falling, partial curve]

## CN1/C(=C/C(=S)NC(=O)C2(C)CC2(Cl)Cl)C(C)(C)c2ccccc21 (stereo not drawn)
[1]
  AC50: 8.91 µM [rising, partial curve, poor fit]

## COc1ccc(-c2nn3c(=O)cc(CN4CCN(C(=O)c5ccc(OC)c(OC)c5)CC4)nc3s2)cc1
[2]
  AC50: 0.0708 µM [rising, full curve, poor fit]
[1]
  AC50: 2.82 µM [rising, partial curve, poor fit]

## Cc1cccc(Nc2nnc(SCC(=O)c3ccc(Br)s3)s2)c1C
[2]
  AC50: 35.5 µM [rising, single point]

## CC(=O)Nc1c(I)c(C(=O)N[C@H]2[C@@H](O)[C@H](O)[C@H](CO)O[C@@H]2O)c(I)c(N(C)C(C)=O)c1I
[2]
  AC50: 0.002 µM [falling, full curve, poor fit]
[1]
  AC50: 0.00398 µM [falling, full curve, poor fit]

## CCn1c(SCC(N)=O)nnc1-c1cc2c(C)nn(-c3ccccc3)c2s1
[1]
  AC50: 11.2 µM [rising, partial curve, poor fit]

## Cc1cccc(-n2c(-c3cccc([N+](=O)[O-])c3)nc3nc4ccccc4nc32)c1
[1]
  AC50: 12.6 µM [rising, single point]

## CC(C)(C)c1ccc(C(=O)Nc2ccc3c(c2)CCCN3C(=O)c2cccs2)cc1
[2]
  AC50: 0.0562 µM [falling, full curve, poor fit]

## Cc1cc(-c2ccc3ccccc3c2)n2ncnc2n1
[2]
  AC50: 15.8 µM [rising, partial curve]
[1]
  AC50: 17.8 µM [rising, partial curve]

## COc1ccc(S(=O)(=O)N2CCCCC2)cc1NS(=O)(=O)c1cc(Cl)ccc1Cl
[2]
  AC50: 0.631 µM [rising, full curve, poor fit]
[1]
  AC50: 0.708 µM [rising, full curve]

## COc1ccc(OC(C)C(=O)Nc2cccc([N+](=O)[O-])c2)cc1 (stereo not drawn)
[1]
  AC50: 14.1 µM [rising, single point]

## Cc1ccc(Nc2nc(N)nc(CN3CCN(Cc4ccc5c(c4)OCO5)CC3)n2)cc1Cl
[2]
  AC50: 31.6 µM [rising, single point]
[1]
  AC50: 20 µM [rising, single point]

## CCOc1cc(C(=O)Nc2ccccc2F)cc(Br)c1OCC
[2]
  AC50: 17.8 µM [rising, partial curve, poor fit]
[1]
  AC50: 17.8 µM [rising, partial curve]

## COc1ccc(CNC(=S)NCc2ccc(OC(C)C)cc2)cc1
[2]
  AC50: 20 µM [rising, single point]
[1]
  AC50: 17.8 µM [rising, single point]

## COC(=O)C/C=C/[C@@H](C)[C@@H](/C=N/OC[C@H]1O[C@H](c2ccccc2)C=C[C@@H]1Oc1ccc(OC)cc1)NS(=O)(=O)c1ccc(C)cc1
[2]
  AC50: 11.2 µM [rising, single point]
[1]
  AC50: 11.2 µM [rising, partial curve]

## CCc1nnc(NC(=O)c2ccc(COc3ccccc3)o2)s1
[2]
  AC50: 35.5 µM [rising, single point]
[1]
  AC50: 35.5 µM [rising, single point]

## CCNC(=S)Nc1ccc(Cl)cc1Cl
[2]
  AC50: 14.1 µM [rising, single point]
[1]
  AC50: 35.5 µM [rising, single point]

## CC(=O)Nc1ccc(NC(=O)C(C)OC(=O)c2ccccc2C(=O)c2ccc(Cl)c([N+](=O)[O-])c2)cc1 (stereo not drawn)
[1]
  AC50: 35.5 µM [rising, partial curve, poor fit]

## O=c1oc2ccccc2cc1-c1cn(-c2ccccc2)c(=S)[nH]1
[1]
  AC50: 5.62 µM [rising, partial curve]

## COc1ccc(OC)c(NC(=S)NCCSc2ccc(C)cc2)c1
[2]
  AC50: 35.5 µM [rising, single point]

## O=C(CSc1nnc(-c2cc3ccccc3cc2O)n1Cc1ccco1)N1CCc2ccccc2C1
[1]
  AC50: 11.2 µM [rising, single point]

## COc1ccc(N=C(C)C2=C(O)c3ccccc3C2=O)cc1
[1]
  AC50: 12.6 µM [rising, single point]

## O=C(N/N=C\c1ccc([N+](=O)[O-])o1)c1ccc(O)cc1
[2]
  AC50: 7.94 µM [falling, partial curve]

## COc1ccc(-c2nnc(SCC(=O)N(Cc3ccccc3)C(C)(C)C)o2)cc1OC
[2]
  AC50: 6.31 µM [rising, partial curve]
[1]
  AC50: 10 µM [rising, partial curve]

## NC1=NC(=O)/C(=C/c2cn(Cc3ccccc3)c3ccccc23)S1
[1]
  AC50: 25.1 µM [rising, single point]

## CN(C)CC/C=C1/c2ccccc2Sc2c(O)cc(Cl)cc21
[1]
  AC50: 12.6 µM [rising, partial curve, poor fit]

## CCN(CC1COc2ccccc2O1)S(=O)(=O)c1ccc(C)cc1 (stereo not drawn)
[1]
  AC50: 20 µM [rising, single point]

## O=C(O)CCCCn1c(SCC(=O)Nc2ccccc2C(F)(F)F)nc2ccsc2c1=O
[2]
  AC50: 0.0316 µM [rising, full curve, poor fit]

## Cc1nn(C)c(C(=O)NNC(=S)NC2CCCCC2)c1Cl
[2]
  AC50: 8.91 µM [rising, partial curve]
[1]
  AC50: 15.8 µM [rising, single point]

## Cc1ccc(OCCCn2cc(C#N)c3ccccc32)cc1
[1]
  AC50: 22.4 µM [rising, single point]

Reference: PubChem BioAssay AID1487 (National Center for Advancing Translational Sciences (NCATS), 2009)
